Data reported in US20140045764A1, “NEUROPROTECTIVE PEPTIDES” (Neurim Pharmaceuticals (1991) Ltd., priority 2012, published 2014).
At least one peptide structure holds a part that was inferred or is arguable (an end, a ring closure or a residue). Marks after values point to notes of the source that are not given here.

System: MPTP-treated mice
Assay: MPTP mouse Parkinson's model, striatal dopamine and metabolites by HPLC
Assay type: in vivo, C57BL mice
Protocol: C57BL mice (all male, age 8-12 weeks, obtained from Harlan Laboratories Israel) were administered with 18 mg/kg MPTP (Sigma-Aldrich) at a dosage volume of 100 μl/mouse by intraperitoneal (IP) injection twice daily, 3 hrs apart on days 1 and 2. On study day 0 and for 8 consecutive days, mice were administered intranasally with PBS (vehicle) or one of the peptides at 1 mg/kg in 12 μl/mouse. All peptides used in in vivo studies were synthesized by LifeTein and were modified with N terminal acetylation and C terminal amidation. For intranasal instillation, each mouse was mildly anesthetized (2.5% Isoflurane) then restrained and held with the neck parallel to the table while a total volume of 12 μl was administered into the nostril. Six (6) μl was administered to the left nostril as two 3 μl drops, followed by a 15 sec hold, and 6 μl was administered to the right nostril as two 3 μl drops, followed by a 15 seconds hold. On day 8 the animals were euthanized by cervical dislocation. Immediately after euthanasia, the brains were removed and the striata dissected (left and right striatum were pooled), weighed and frozen in dry ice. The striata samples were homogenized in a solution containing 0.1 M perchloric acid and 10 ng/ml 3,4 dihydroxybenzylamine (DHBA) by 5 seconds sonication at 80 W. The supernatants of each tissue extract were injected directly to HPLC pump (Jasco PU-2080Plus) onto a reverse phase column (GL-Science, Inertsil ODS-2 5 um 4.6×150 mm at room temperature) coupled to an electrochemical detector Coulochem II ESA with a conditioning cell model 5021 and analytical cell model 5011. The working potential was set to 0.35V on the conditioning cell and 0.1V and −0.35V on the analytical cell. The mobile phase was 0.05M monobasic sodium phosphate, with 80 mg/L EDTA, 125 mg/L heptane sulfonic acid, 55 ml of methanol and 50 ml of acetonitrile pH=2.7. The flow rate was 1.5 ml/min. The dopamine, DOPAC and HVA values were normalized to the lysate protein concentration (BCA kit, Pierce).
In this model, repeated itraperitoneal injections of MPTP (18 mg/kg at 3-h intervals on two consecutive days) result in dopaminergic neuronal death in the substantia nigra and dopamine depletion of the striatum. The peptides (or vehicle) were applied twice daily by intranasal instillation at 1 mg/kg starting 1 day prior to exposure to MPTP and continued until the end of the study. 7 days after the injection of MPTP mice were sacrificed and striatal levels of dopamine (DA), […] (DOPAC) and homovanillic acid (HVA) were evaluated by HPLC.
Specifically Table 2 illustrates the effect of human V6 and V 10-derived peptides (1 mg/kg, intranasal administration) on the striatal level of dopamine and metabolites in MPTP-treated mice. Mice were treated according to the protocol described in the Materials and Methods. Striatal levels of DA, DOPAC and HVA were determined by HPLC, divided by the total protein content value and normalized to the levels obtained in vehicle treated mice. Groups 1 and 3 treated with 1:1 mix of normal designated and retro-inverso analog (D amino acids at reversed sequence). Group 6 was treated with 1:1 mix of 10B2.5—6 and 10B2.5—9 peptides.

[1] = striatal level, peptide 1 mg/kg intranasal, divided by total protein and normalized to vehicle treated mice

In the case of “Ac-EGYTSHYP-NH2 (N-terminus and C-terminus assumed) [V10A1_N+4, EGYTSHYP]”, the “effect on striatal DA level compared to the vehicle control” value (1 mg/kg intranasal) is reported as “significantly positive effect”, the “levels of at least one of the 2 DA metabolites, DOPAC and HVA” value (1 mg/kg intranasal) is reported as “increased significantly” and the DA [1] is reported as 58.0 *. The DOPAC [1] was 61.8 * and the HVA [1] was 28.5.
